Reference: article PMC6291992
These are yes or no findings as the source states them, for the method shown. For part of these data: Binding seen in cells or lysates may run through a third protein. Some entries that bind do so weakly or less than the wild type. For part of these data: Sequences can lack the tags named with a protein. One block for each binder: values may come before it.

Columns and labels:
[1] = target: T1, Transcription factor activating enhancer-binding protein 4 (AP4), endogenous in SW48 cells (human (endogenous in SW48)) (UniProt Q01664); experiment: co-IP; SW48 whole cell lysate (NP-40 lysis buffer); immunoprecipitation with anti-TRIB2 or anti-AP4 antibody overnight, protein A/G beads 2~4 h at 4 °C, western blot
T1 sequence: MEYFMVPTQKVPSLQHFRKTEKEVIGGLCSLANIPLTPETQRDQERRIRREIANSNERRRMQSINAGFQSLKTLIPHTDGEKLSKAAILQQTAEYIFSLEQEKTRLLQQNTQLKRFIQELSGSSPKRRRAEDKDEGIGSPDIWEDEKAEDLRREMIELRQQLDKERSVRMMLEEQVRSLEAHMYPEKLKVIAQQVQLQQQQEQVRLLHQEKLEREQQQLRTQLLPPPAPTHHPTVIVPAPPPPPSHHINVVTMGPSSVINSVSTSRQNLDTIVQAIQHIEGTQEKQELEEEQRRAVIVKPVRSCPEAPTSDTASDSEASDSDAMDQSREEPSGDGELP

[2] = target: T2, Flag-AP4 (UniProt Q01664); experiment: co-IP; HEK 293T cells co-transfected with Flag-AP4 and His-TRIB2 (or its deletion mutants), 48 h; whole cell lysates immunoprecipitated with anti-Flag or anti-His antibody and blotted with anti-His or anti-Flag antibody
T2 sequence: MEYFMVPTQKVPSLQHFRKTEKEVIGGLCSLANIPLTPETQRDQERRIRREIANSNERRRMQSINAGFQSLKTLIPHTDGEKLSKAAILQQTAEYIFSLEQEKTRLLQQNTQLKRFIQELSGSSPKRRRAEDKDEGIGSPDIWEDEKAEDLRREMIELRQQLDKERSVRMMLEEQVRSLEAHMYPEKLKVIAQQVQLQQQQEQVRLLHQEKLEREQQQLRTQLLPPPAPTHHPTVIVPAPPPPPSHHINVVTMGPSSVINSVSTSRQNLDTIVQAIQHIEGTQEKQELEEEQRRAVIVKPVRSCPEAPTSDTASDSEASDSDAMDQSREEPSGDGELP

[3] = target: T3, Tribbles pseudokinase 2 (TRIB2), endogenous in SW48 cells (human (endogenous in SW48)) (UniProt Q92519); experiment: co-IP; SW48 whole cell lysate (NP-40 lysis buffer); immunoprecipitation with anti-TRIB2 or anti-AP4 antibody overnight, protein A/G beads 2~4 h at 4 °C, western blot
T3 sequence: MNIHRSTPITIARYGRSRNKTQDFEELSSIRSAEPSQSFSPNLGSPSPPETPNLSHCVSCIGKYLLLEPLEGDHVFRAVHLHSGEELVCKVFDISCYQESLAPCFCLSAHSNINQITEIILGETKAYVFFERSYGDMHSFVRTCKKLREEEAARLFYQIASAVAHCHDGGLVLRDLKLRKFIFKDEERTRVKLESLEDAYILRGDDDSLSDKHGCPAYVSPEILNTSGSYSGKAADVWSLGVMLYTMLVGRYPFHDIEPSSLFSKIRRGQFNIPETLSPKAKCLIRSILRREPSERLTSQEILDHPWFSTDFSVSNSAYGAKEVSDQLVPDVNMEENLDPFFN

[4] = target: T4, GST-TRIB2 fusion protein (UniProt Q92519); experiment: pull-down; purified His-AP4 incubated with GST or GST-TRIB2 bound to Glutathione Sepharose beads at 4 °C overnight; western blot of beads-associated proteins; both purified
T4 sequence: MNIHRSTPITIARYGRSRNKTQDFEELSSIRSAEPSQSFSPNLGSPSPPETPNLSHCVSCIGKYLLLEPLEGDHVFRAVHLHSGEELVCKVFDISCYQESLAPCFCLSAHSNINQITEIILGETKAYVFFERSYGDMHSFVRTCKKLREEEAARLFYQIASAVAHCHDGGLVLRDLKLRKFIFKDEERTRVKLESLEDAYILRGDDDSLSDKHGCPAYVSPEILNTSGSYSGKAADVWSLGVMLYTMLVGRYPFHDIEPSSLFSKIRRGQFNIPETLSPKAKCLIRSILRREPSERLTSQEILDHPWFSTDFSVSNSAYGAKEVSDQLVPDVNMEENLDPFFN

[5] = target: T5, His-TRIB2 (UniProt Q92519); experiment: co-IP; HEK 293T cells co-transfected with Flag-AP4 and His-TRIB2 (or its deletion mutants), 48 h; whole cell lysates immunoprecipitated with anti-Flag or anti-His antibody and blotted with anti-His or anti-Flag antibody
T5 sequence: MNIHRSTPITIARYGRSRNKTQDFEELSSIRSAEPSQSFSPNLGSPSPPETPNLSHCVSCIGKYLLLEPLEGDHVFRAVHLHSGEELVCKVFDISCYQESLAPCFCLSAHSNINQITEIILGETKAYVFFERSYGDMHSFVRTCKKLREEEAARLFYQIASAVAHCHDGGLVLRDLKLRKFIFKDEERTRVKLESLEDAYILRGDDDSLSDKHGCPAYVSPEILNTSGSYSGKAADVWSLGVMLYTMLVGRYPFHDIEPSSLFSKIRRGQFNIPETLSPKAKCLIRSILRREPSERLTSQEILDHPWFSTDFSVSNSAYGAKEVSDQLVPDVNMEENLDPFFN

binding [1]: binds
B1: Tribbles pseudokinase 2 (TRIB2), endogenous in SW48 cells (protein, UniProt Q92519 1-343)
chain: MNIHRSTPITIARYGRSRNKTQDFEELSSIRSAEPSQSFSPNLGSPSPPETPNLSHCVSCIGKYLLLEPLEGDHVFRAVHLHSGEELVCKVFDISCYQESLAPCFCLSAHSNINQITEIILGETKAYVFFERSYGDMHSFVRTCKKLREEEAARLFYQIASAVAHCHDGGLVLRDLKLRKFIFKDEERTRVKLESLEDAYILRGDDDSLSDKHGCPAYVSPEILNTSGSYSGKAADVWSLGVMLYTMLVGRYPFHDIEPSSLFSKIRRGQFNIPETLSPKAKCLIRSILRREPSERLTSQEILDHPWFSTDFSVSNSAYGAKEVSDQLVPDVNMEENLDPFFN

binding [4]: binds
B5: His-AP4 protein (protein, UniProt Q01664 1-338)
chain: MEYFMVPTQKVPSLQHFRKTEKEVIGGLCSLANIPLTPETQRDQERRIRREIANSNERRRMQSINAGFQSLKTLIPHTDGEKLSKAAILQQTAEYIFSLEQEKTRLLQQNTQLKRFIQELSGSSPKRRRAEDKDEGIGSPDIWEDEKAEDLRREMIELRQQLDKERSVRMMLEEQVRSLEAHMYPEKLKVIAQQVQLQQQQEQVRLLHQEKLEREQQQLRTQLLPPPAPTHHPTVIVPAPPPPPSHHINVVTMGPSSVINSVSTSRQNLDTIVQAIQHIEGTQEKQELEEEQRRAVIVKPVRSCPEAPTSDTASDSEASDSDAMDQSREEPSGDGELP

binding [5]: binds
B6: Flag-AP4 (protein, UniProt Q01664 1-338)
chain: MEYFMVPTQKVPSLQHFRKTEKEVIGGLCSLANIPLTPETQRDQERRIRREIANSNERRRMQSINAGFQSLKTLIPHTDGEKLSKAAILQQTAEYIFSLEQEKTRLLQQNTQLKRFIQELSGSSPKRRRAEDKDEGIGSPDIWEDEKAEDLRREMIELRQQLDKERSVRMMLEEQVRSLEAHMYPEKLKVIAQQVQLQQQQEQVRLLHQEKLEREQQQLRTQLLPPPAPTHHPTVIVPAPPPPPSHHINVVTMGPSSVINSVSTSRQNLDTIVQAIQHIEGTQEKQELEEEQRRAVIVKPVRSCPEAPTSDTASDSEASDSDAMDQSREEPSGDGELP

Further lines, the binder ahead of its results:

B2: His-TRIB2 (protein, UniProt Q92519 1-343)
chain: MNIHRSTPITIARYGRSRNKTQDFEELSSIRSAEPSQSFSPNLGSPSPPETPNLSHCVSCIGKYLLLEPLEGDHVFRAVHLHSGEELVCKVFDISCYQESLAPCFCLSAHSNINQITEIILGETKAYVFFERSYGDMHSFVRTCKKLREEEAARLFYQIASAVAHCHDGGLVLRDLKLRKFIFKDEERTRVKLESLEDAYILRGDDDSLSDKHGCPAYVSPEILNTSGSYSGKAADVWSLGVMLYTMLVGRYPFHDIEPSSLFSKIRRGQFNIPETLSPKAKCLIRSILRREPSERLTSQEILDHPWFSTDFSVSNSAYGAKEVSDQLVPDVNMEENLDPFFN
binding [2]: binds

B3: His-TRIB2 kinase-like domain (KD) (domain or fragment, UniProt Q92519 61-308)
chain: IGKYLLLEPLEGDHVFRAVHLHSGEELVCKVFDISCYQESLAPCFCLSAHSNINQITEIILGETKAYVFFERSYGDMHSFVRTCKKLREEEAARLFYQIASAVAHCHDGGLVLRDLKLRKFIFKDEERTRVKLESLEDAYILRGDDDSLSDKHGCPAYVSPEILNTSGSYSGKAADVWSLGVMLYTMLVGRYPFHDIEPSSLFSKIRRGQFNIPETLSPKAKCLIRSILRREPSERLTSQEILDHPWF
binding [2]: binds

B4: Transcription factor activating enhancer-binding protein 4 (AP4), endogenous in SW48 cells (protein, UniProt Q01664 1-338)
chain: MEYFMVPTQKVPSLQHFRKTEKEVIGGLCSLANIPLTPETQRDQERRIRREIANSNERRRMQSINAGFQSLKTLIPHTDGEKLSKAAILQQTAEYIFSLEQEKTRLLQQNTQLKRFIQELSGSSPKRRRAEDKDEGIGSPDIWEDEKAEDLRREMIELRQQLDKERSVRMMLEEQVRSLEAHMYPEKLKVIAQQVQLQQQQEQVRLLHQEKLEREQQQLRTQLLPPPAPTHHPTVIVPAPPPPPSHHINVVTMGPSSVINSVSTSRQNLDTIVQAIQHIEGTQEKQELEEEQRRAVIVKPVRSCPEAPTSDTASDSEASDSDAMDQSREEPSGDGELP
binding [3]: binds
